Assay results reported in patent US20050089473A1, “Potassium channel mediated delivery of agents through the blood-brain barrier” (Cedars-Sinai Medical Center, priority 2003, published 2005).
At least one read-out could not be matched to a standard name with certainty.

Test system: intracerebral RG2 tumors
Assay: In vivo BTB permeability (Ki by quantitative autoradiography) in RG2 tumor-bearing rats
Design: species or system rat
Details: i.c.

iberiotoxin [IBTX]
Effect of IBTX co-infusion on MS induced Ki increase: not blocked
